In paper PMC10163288:
The other results are listed elsewhere or left out.

B1: il2ra_site1_1z92_sap_13_mot_HHH_b2_04040_af2_000000226_0001_19_35_H_._32095df27da28122ece9101737e5990b_0001_0001_0000200013_0000001_0_0001_af2pred_0001_af2pred (protein)
chain: SSSSSDEEEEEAEKVVEEVVELFGLDEEEEKLLERLARLALKQGISPEQIRRVLEDALELSSSSS
B2: il2ra_site2_2erj_sap_26_mot_3cad0fa5fd511b0551b272d6504d3e9d_0001_1_000000059_0001_37_51_H_._8e845404a349e0f791f287ce38454f41_0001_0001_0000200007_0000001_0_000 … (protein)
chain: SSSSSLHELFRLANEALRLLSEGDPEEAREVIEQLEELAEETNSRTVRDIVEALKKLLEMLSSSS
B3: il2ra_site2_3nfp_normal_mot_HHH_b2_07498_000000057_0001_1_14_H_._HHH_b2_00986_0002_0000200008_0000001_0 (protein)
chain: SSSSDIEERVKELLEEARELLEEGDFFEAAHLVVEATRLATEGNDPELAREVLELYELIKGSSSS
B4: il2ra_site1_1z92_sap_11_mot_HHH_eva_0265_000000128_0001_1_18_H_._HHH_b2_04596_0001_0000200016_0000001_0_0001_af2pred_dldesign_0_af2pred (protein)
chain: SLEDRIREAFKRGRIAKLLRELFAELEARLGDPEAARAELTDIVARTLDCPREDADRLIELALKP
B5: il2ra_site1_1z92_sap_18_mot_22aa8d8ad8dce7f663ea8fa348a52261_0001_000000005_0001_37_51_H_._a4d94f43bc0d423f3d0edd362bd39fea_0001_af2_0001_0000100001_0000001_0_0 … (protein)
chain: SLEEEVEELLREAGVPPSDIKNLKRLIELAKEQGVPPEDILRDLIRLLEFLGDPEAARLLQELLK
B6: il2ra_site1_1z92_normal_mot_HHH_b1_07537_af2_000000083_0001_43_56_H_._HHH_b1_04212_af2_0001_0000300027_0000001_0_af2pred_dldesign_0_af2pred (protein)
chain: SSSSSSPDELADKVDDLFKEALKLSDKEKRKELLEKALELAEKAESPKLVKEVRDYLSRLSSSSS
B7: il2ra_site2_3nfp_sap_19_mot_HHH_b2_04113_af2_000000292_0001_1_18_H_._HHH_b2_00306_0001_0000100003_0000001_1_0001 (protein)
chain: SDEREELLEKSVEYLRAFLKVLENPEAQEVVRRAVEVLEEAIEKQDPELRHEAIELLFEAAELLS
B8: il2ra_site2_3nfp_sap_22_mot_HHH_b2_05281_000000198_0001_39_56_H_._HHH_b1_07161_0001_0000200018_0000001_0_0001 (protein)
chain: SSSSSSWEVMQLAAEAIELDRNGNPEEARKVLEKAEELAEEEGDEWALEYVRARLLLLERSSSSS
B9: il2ra_site2_3nfp_normal_mot_HHH_b1_01086_000000225_0001_20_36_H_._HHH_b2_04820_af2_0001_0000400031_0000001_0_af2pred_0001_af2pred_1 (protein)
chain: SSSSDVEEEVRRLLEEAEELLEEGDKEEAERVLRKASELAREANNHELFAAVMQLLELVGSSSSS
B10: il2ra_site1_2b5i_normal_mot_HHH_b2_03466_af2_000000069_0001_42_56_H_._HHH_b1_06107_0001_0000300010_0000001_0_af2pred_0001_af2pred_1 (protein)
chain: SSSSDERREELRELLEEALELIRNGNPEEARKVLEKAEELAEELNDRAMLKLIRLALEEVSSSSS

What follows are binders tested against il2ra, P01589 (assay: yeast display titration).

Apparent Kd, inactive:
B1 no binding seen, B2 no binding seen, B3 no binding seen, B4 no binding seen, B5 no binding seen, B6 no binding seen, B7 no binding seen, B8 no binding seen, B9 no binding seen, B10 no binding seen
